Data on 18 targets can be found in the supplement of paper PMC10849652.

Amino acid sequences for entries named in this document (tags omitted). A change or cut given only in a name is not applied to a line headed by its entry.
UniProt Q14517: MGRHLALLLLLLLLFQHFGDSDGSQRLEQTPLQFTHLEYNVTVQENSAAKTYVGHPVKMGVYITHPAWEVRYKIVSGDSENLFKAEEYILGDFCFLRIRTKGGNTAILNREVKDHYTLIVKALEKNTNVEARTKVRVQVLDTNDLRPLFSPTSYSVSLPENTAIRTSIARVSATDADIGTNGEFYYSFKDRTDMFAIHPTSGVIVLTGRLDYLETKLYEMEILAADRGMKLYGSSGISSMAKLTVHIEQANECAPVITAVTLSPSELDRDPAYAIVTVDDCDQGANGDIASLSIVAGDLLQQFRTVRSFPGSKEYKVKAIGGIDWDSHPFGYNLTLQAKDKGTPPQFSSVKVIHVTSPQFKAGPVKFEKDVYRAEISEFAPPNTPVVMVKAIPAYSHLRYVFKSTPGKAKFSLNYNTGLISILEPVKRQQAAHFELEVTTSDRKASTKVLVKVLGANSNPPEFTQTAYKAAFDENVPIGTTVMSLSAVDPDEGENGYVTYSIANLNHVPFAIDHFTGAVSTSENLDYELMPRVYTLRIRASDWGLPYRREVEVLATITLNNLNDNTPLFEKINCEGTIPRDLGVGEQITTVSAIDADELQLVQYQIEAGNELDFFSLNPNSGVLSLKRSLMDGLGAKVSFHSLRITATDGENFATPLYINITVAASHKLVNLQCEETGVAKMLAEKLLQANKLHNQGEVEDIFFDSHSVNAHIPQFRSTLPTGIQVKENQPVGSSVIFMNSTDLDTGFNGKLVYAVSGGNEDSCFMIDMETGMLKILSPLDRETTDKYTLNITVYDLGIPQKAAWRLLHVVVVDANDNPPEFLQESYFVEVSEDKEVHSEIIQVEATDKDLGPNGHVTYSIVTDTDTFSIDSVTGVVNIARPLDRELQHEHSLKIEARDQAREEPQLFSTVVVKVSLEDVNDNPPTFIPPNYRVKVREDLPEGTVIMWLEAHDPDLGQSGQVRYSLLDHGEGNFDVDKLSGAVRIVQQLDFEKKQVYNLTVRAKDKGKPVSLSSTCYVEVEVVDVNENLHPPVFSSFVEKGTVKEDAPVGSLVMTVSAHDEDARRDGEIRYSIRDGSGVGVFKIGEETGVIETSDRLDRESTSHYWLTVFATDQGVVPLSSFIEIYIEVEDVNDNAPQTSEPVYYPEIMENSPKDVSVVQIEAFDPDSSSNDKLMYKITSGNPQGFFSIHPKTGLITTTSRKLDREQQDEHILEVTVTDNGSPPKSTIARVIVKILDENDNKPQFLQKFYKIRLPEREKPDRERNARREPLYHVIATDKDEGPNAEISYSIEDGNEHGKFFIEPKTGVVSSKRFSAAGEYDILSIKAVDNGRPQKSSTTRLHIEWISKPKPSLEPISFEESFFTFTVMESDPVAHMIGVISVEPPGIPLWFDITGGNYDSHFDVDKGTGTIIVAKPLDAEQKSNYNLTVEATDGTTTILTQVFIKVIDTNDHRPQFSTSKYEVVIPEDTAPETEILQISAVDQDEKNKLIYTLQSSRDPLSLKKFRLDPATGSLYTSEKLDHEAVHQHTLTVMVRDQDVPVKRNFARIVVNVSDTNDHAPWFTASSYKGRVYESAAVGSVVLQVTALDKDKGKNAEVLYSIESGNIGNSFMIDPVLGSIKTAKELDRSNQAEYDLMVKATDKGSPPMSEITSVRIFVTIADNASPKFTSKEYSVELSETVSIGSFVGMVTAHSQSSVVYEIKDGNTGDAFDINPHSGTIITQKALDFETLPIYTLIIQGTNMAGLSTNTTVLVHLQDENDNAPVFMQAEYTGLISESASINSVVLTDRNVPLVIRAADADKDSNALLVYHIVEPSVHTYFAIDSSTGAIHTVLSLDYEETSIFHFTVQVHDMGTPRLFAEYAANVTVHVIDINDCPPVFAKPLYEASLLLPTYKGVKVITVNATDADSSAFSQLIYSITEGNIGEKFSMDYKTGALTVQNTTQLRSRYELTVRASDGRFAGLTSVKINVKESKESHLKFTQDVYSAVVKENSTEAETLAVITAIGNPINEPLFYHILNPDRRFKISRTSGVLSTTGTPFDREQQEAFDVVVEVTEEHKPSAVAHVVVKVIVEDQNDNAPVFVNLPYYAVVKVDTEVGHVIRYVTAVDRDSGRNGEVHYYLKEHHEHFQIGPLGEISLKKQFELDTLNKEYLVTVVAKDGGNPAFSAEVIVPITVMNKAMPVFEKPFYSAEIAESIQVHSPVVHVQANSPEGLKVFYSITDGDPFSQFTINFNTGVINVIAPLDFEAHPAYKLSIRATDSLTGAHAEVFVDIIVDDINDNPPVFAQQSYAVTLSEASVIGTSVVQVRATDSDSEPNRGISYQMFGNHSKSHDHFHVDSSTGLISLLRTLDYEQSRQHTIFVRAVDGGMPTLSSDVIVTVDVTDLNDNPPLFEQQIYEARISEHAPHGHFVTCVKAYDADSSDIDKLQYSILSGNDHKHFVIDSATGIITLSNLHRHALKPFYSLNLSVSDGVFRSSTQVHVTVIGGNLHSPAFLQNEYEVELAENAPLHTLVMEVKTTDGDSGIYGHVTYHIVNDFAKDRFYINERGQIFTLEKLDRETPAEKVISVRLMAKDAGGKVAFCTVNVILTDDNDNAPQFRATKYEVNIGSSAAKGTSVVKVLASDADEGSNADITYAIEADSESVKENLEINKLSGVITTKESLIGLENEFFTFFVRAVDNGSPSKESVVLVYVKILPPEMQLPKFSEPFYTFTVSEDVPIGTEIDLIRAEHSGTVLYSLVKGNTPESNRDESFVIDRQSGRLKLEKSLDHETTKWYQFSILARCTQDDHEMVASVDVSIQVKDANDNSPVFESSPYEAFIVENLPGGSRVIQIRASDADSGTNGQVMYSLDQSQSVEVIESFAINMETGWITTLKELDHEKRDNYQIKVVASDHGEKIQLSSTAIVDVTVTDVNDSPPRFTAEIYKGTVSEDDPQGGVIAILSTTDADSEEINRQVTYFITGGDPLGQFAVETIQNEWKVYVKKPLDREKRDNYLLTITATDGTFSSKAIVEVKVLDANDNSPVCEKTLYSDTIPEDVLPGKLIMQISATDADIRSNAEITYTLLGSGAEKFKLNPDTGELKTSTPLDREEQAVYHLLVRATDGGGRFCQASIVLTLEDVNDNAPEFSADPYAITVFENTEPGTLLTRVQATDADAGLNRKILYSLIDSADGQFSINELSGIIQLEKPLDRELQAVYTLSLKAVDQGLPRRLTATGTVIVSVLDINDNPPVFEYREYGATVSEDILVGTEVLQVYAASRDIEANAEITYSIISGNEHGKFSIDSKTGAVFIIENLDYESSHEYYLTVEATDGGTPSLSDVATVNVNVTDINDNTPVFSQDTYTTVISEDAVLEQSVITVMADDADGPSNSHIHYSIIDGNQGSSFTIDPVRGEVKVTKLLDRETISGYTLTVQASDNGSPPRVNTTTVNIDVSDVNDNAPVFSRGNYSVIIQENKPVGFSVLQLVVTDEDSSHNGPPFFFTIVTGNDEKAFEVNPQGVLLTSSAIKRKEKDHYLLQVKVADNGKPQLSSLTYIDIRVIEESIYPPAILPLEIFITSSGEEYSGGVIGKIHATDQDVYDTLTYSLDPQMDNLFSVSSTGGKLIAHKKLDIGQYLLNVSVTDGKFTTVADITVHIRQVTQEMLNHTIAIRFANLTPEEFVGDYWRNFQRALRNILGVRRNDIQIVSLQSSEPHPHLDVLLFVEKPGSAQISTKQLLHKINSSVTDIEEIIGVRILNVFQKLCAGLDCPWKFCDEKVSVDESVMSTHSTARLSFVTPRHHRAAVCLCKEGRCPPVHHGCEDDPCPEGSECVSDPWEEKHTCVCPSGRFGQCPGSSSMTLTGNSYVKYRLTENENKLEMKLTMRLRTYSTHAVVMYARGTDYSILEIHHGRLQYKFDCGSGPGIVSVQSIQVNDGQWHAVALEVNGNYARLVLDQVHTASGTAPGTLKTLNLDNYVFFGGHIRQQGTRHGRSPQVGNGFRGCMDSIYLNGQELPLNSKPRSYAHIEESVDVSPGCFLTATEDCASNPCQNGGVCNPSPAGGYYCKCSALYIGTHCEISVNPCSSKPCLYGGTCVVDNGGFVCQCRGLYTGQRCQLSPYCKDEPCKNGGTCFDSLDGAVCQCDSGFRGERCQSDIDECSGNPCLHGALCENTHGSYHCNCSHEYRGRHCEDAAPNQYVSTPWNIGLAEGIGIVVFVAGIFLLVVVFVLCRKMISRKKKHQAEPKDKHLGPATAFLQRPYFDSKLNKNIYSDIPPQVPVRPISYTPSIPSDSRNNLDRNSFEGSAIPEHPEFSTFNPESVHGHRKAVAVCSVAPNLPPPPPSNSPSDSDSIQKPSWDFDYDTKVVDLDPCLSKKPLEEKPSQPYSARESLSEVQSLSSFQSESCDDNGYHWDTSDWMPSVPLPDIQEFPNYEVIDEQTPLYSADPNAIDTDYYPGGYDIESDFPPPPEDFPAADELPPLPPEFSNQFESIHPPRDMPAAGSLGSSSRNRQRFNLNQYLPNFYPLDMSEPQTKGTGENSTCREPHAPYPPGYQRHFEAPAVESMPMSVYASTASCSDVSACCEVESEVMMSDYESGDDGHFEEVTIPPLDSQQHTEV
UniProt O15287: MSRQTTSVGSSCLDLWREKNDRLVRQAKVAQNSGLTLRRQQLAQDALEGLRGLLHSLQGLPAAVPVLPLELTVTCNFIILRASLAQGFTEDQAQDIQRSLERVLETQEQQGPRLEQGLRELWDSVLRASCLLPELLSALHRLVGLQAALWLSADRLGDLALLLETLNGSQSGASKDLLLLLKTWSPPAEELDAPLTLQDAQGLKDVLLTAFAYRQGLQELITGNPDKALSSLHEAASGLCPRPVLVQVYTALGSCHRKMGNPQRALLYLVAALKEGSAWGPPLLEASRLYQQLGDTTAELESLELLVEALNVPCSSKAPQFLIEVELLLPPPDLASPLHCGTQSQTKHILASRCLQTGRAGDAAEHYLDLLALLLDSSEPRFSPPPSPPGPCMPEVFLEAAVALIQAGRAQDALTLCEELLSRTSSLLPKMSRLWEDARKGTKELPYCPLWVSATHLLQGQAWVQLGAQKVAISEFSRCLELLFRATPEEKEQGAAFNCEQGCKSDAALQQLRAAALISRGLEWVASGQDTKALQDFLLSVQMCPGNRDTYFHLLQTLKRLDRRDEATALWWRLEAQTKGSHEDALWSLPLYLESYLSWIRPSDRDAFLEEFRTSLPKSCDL
UniProt Q6ZRV2: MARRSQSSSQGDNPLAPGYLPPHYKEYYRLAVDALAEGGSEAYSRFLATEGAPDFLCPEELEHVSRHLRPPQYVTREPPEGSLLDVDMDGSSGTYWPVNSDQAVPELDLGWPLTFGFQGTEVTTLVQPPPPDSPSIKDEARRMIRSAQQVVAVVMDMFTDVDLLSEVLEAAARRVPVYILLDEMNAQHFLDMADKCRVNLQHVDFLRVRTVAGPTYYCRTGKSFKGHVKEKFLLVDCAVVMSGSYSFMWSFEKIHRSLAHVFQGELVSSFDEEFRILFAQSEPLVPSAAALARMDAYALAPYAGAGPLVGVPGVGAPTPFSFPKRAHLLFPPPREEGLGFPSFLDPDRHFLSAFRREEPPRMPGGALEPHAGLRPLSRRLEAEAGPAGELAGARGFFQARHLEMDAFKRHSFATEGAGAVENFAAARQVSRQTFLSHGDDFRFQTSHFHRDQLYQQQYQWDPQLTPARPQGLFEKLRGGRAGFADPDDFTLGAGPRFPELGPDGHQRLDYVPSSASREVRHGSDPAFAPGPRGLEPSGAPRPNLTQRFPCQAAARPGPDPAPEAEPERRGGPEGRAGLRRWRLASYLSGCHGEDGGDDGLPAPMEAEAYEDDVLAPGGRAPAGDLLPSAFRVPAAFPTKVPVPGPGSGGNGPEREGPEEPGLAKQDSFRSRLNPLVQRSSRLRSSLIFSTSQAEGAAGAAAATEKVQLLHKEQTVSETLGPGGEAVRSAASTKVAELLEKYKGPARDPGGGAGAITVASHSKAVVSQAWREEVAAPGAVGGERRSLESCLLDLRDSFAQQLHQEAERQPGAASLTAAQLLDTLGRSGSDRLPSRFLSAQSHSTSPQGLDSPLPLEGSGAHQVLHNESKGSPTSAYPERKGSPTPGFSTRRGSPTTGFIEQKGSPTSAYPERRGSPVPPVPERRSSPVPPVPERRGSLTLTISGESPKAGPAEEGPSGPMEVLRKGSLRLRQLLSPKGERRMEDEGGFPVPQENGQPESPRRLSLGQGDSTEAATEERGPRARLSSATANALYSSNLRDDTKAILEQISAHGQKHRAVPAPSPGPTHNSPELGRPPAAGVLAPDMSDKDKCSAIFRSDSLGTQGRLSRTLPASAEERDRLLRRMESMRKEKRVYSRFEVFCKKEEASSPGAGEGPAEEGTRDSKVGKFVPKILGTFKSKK

Holding throughout (test): log2 fold change, soluble protein after heating vs DMSO (PISA); higher = thermal stabilisation; K562 lysate, 10 uM; active = over 0.2 and 3.5 SD of the protein, either way, in both replicates (recomputed)
Compound in one experiment: CN1CC[C@H](c2c(O)cc(O)c3c(=O)cc(-c4ccccc4Cl)oc23)[C@H](O)C1 [alvocidib]
Put shortly:
(§1)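 K562 pellets were dounce-homogenised in PBS pH 7.4 with 1 mM MgCl2, and the crude extract at 1 mg/mL protein was treated with 10 μM compound for 30 min. Aliquots were heated for 3 min across 48°C-58°C, pooled, and brought to 0.5% NP-40 at 4°C; soluble protein was the supernatant after 21,000xg for 90 min. Soluble protein was quantified by TMTpro 16plex LC-MS/MS with channel sums equalised, and reported as log2 fold change in thermal stability against DMSO controls, with values from duplicates.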

Compound in the next experiment: CN1CCc2c(c3ccccc3n2Cc2ccc(C(=O)NO)cc2)C1 [Tubastatin A]
Put shortly:
as §1

Compound in experiment [1]: CNC(=O)C1=CC=CC=C1NC2=NC(=NC=C2Cl)NC3=C(C=C(C=C3)N4CCOCC4)OC
Summed up:
as §1

Compound in the next experiment: CNC(=O)c1ccc(Nc2ncc(C(F)(F)F)c(NCc3nccnc3N(C)S(C)(=O)=O)n2)cc1 [defactinib]
Put shortly:
as §1

Compound in experiment [2]: CNc1nc(-c2ccc3c(N)n[nH]c3c2)cc(N2C[C@@H](C(=O)NC3CCCCC3)CC[C@H]2C)n1
Put shortly:
as §1

Compound in the next experiment: COC(=O)N[C@@H](C)CNc1nccc(-c2cn(C(C)C)nc2-c2cc(Cl)cc(NS(C)(=O)=O)c2F)n1 [encorafenib]
Put shortly:
as §1

Compound in experiment [3]: COC(=O)[C@H](CCSC)NC(=O)C1=C(C=C(C=C1)NC[C@H](CS)N)C2=CC=CC=C2
Put shortly:
as §1

Compound in the next experiment: COc1cc(Nc2ncc3c(n2)-c2ccc(Cl)cc2C(c2c(F)cccc2OC)=NC3)ccc1C(=O)O [alisertib]
Put shortly:
as §1

Compound in experiment [4]: COc1cc2nc(-c3cc(F)ccc3O)nc(N[C@@H]3CNC[C@H]3C(C)(C)O)c2cc1OC
Summed up:
as §1

Compound in the next experiment: COc1cc2ncnc(Nc3ccc(F)c(Cl)c3)c2cc1OCCCN1CCOCC1 [gefitinib]
Summed up: as §1

This is one part of the list.

Consider FARSB (UniProt Q9NSD9), for which the log2 fold change with alvocidib is inactive: 0.003; with Tubastatin A it was inactive: -0.056; in [1] it was inactive: -0.012; with defactinib, inactive: -0.014; in experiment [2], inactive: -0.012; with encorafenib, inactive: -0.029. Also, the log2 fold change was inactive: 0.067 in experiment [3], inactive: 0.002 with alisertib, inactive: 0.005 in experiment [4] and inactive: -0.013 in the experiment with gefitinib.
Turning to FAT1 (UniProt Q14517), the log2 fold change is inactive: -0.14 in the experiment with alvocidib; inactive: 0.18 with Tubastatin A; inactive: 0 in [1]; inactive: 0.029 with encorafenib; inactive: 0.047 in [3]; inactive: 0.094 in experiment [4].
Take FOXJ2 (UniProt Q9P0K8): the log2 fold change with alvocidib is inactive: 0.006; with Tubastatin A it was inactive: -0.114; in experiment [1], inactive: 0.021; in experiment [2], inactive: 0.053; with encorafenib it was inactive: -0.081; in experiment [3], inactive: 0.022. Moreover, the log2 fold change with alisertib was inactive: -0.308; with gefitinib, inactive: 0.057.
Regarding FAXDC2 (UniProt Q96IV6), the log2 fold change in the experiment with alvocidib is inactive: -0.242; in [1], inactive: 0.199; in experiment [2], inactive: 0.131; in the experiment with encorafenib, inactive: -0.217; in experiment [3], inactive: -0.206; in experiment [4] it was inactive: 0.029.
On to FBRS (UniProt J3KNZ9), for which the log2 fold change with alvocidib was inactive: -0.081; with Tubastatin A it was inactive: -0.009; in experiment [1], inactive: 0.073; with defactinib, inactive: -0.029; in [2], inactive: -0.027; with encorafenib, inactive: -0.04. The log2 fold change was inactive: 0.009 in experiment [3], inactive: -0.078 with alisertib and inactive: 0.084 with gefitinib.
In the case of FAT2 (UniProt Q9NYQ8), the log2 fold change with alvocidib was inactive: -0.214; with Tubastatin A, inactive: -0.083; in [1], inactive: -0.123; with defactinib it was inactive: -0.034; with encorafenib, inactive: -0.092; in experiment [3], inactive: 0.104. For the same target, the log2 fold change was inactive: -0.023 with alisertib, inactive: 0.043 in experiment [4] and inactive: 0.013 with gefitinib.
For FKRP (UniProt Q9H9S5), the log2 fold change with alvocidib was inactive: -0.173; with Tubastatin A, inactive: 0.094; in experiment [1], inactive: 0.05; with defactinib it was inactive: -0.072; in [2], inactive: 0.099; in the experiment with encorafenib, inactive: 0.03. Besides, the log2 fold change in [3] is inactive: -0.021; in experiment [4], inactive: 0.036.
On to FLT4 (UniProt P35916), for which the log2 fold change was inactive: -0.086 with alvocidib; inactive: -0.001 in the experiment with Tubastatin A; active: -0.428 in experiment [1]; inactive: 0.004 with defactinib; inactive: -0.081 in experiment [2]; inactive: -0.129 with encorafenib. Also, the log2 fold change in [3] was inactive: 0.053; in [4] it was inactive: 0.031.
Regarding FARS2 (UniProt O95363), the log2 fold change was inactive: -0.031 with alvocidib; inactive: -0.055 with Tubastatin A; inactive: 0.043 in [1]; inactive: -0.009 in the experiment with defactinib; inactive: -0.035 with encorafenib; inactive: 0.193 in experiment [3]. The log2 fold change with alisertib is inactive: 0.365; in experiment [4], inactive: 0.054; in the experiment with gefitinib, inactive: -0.191.
For the target FANCG (UniProt O15287), the log2 fold change with alvocidib is inactive: -0.005; with Tubastatin A, inactive: 0.173; with defactinib, inactive: 0.278; in the experiment with encorafenib it was inactive: 0.07; in [3], inactive: 0.087; in the experiment with alisertib it was inactive: 0.1. In the experiment with gefitinib, the log2 fold change was inactive: -0.128.
For the target FAM83H (UniProt Q6ZRV2), the log2 fold change with alvocidib was inactive: -0.003; with defactinib, inactive: -0.18; with encorafenib it was inactive: -0.127; in experiment [3] it was inactive: -0.016; in [4] it was inactive: -0.12.
As for FNDC3A (UniProt Q9Y2H6), the log2 fold change is inactive: -0.017 in the experiment with alvocidib; inactive: -0.237 in the experiment with Tubastatin A; inactive: 0.014 in experiment [1]; inactive: -0.141 in the experiment with alisertib; inactive: -0.214 with gefitinib.
Consider FBXL15 (UniProt Q9H469), for which the log2 fold change with alvocidib is inactive: 0.077; with Tubastatin A it was inactive: -0.182; in the experiment with defactinib it was inactive: 0.198; in experiment [2], inactive: 0.106; with encorafenib it was inactive: -0.001; in [3], inactive: 0.04. The values for the log2 fold change with alisertib and with gefitinib were inactive: -0.09 and inactive: 0.184, respectively.
For the target FBXO11 isoform 5 (UniProt Q86XK2), the log2 fold change with alvocidib was inactive: -0.015; with Tubastatin A, inactive: 0.008; in experiment [1] it was inactive: -0.115; in [2], inactive: -0.044; in the experiment with alisertib it was inactive: -0.055; in experiment [4] it was inactive: -0.157. Further, the log2 fold change with gefitinib was inactive: 0.035.
Take FBXW11 (UniProt Q9UKB1): the log2 fold change with alvocidib was inactive: -0.08; in the experiment with Tubastatin A, inactive: 0.044; in [1], inactive: 0.171; in [2], inactive: -0.083; in the experiment with encorafenib it was inactive: 0.07; in [3], inactive: 0.071. Further, the log2 fold change in experiment [4] was inactive: -0.144.
With FARP2 (UniProt H7C3M7), the log2 fold change with alvocidib is inactive: -0.001; in the experiment with Tubastatin A, inactive: -0.262; in experiment [1] it was inactive: 0.035; with defactinib it was inactive: -0.177; in experiment [2], inactive: 0.036; in the experiment with encorafenib, inactive: -0.134. In addition, the log2 fold change in experiment [3] was inactive: 0.128; with alisertib, inactive: -0.033; with gefitinib, inactive: 0.044.
Take FBXO44 isoform 2 (UniProt Q9H4M3): the log2 fold change in the experiment with alvocidib is inactive: -0.03; in the experiment with Tubastatin A, inactive: 0.046; in experiment [1], inactive: -0.106; with defactinib it was inactive: 0.024; in experiment [2], inactive: 0.059; with alisertib, inactive: 0.38. Also, the log2 fold change is inactive: -0.069 in experiment [4] and inactive: 0.086 with gefitinib.
FBXW2 (UniProt Q9UKT8): the log2 fold change with alvocidib was inactive: -0.047; in the experiment with Tubastatin A, inactive: 0.043; with defactinib, inactive: 0.094; in [2] it was inactive: -0.139.
